PubChem BioAssay AID1259308 | NCATS – 2017

- Test: 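Genes whose loss raises luciferase production in HEK293 cells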 (primary screen)
- Cell system: human HEK293 embryonic kidney cells stably expressing firefly luciferase (HEK-CMV-Luc2-Hygro)
- Reagent: single siRNA against human genes, 0.8 pmol siRNA per well
- Duration: 72 h
- Read-out: 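Reporter luminescence and viable-cell signal on separate replicate plates, given as percent of non-targeting control and median/MAD z-scores, plus per-cell luciferase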
- Scale: total luciferase, z-score and total luciferase, % of control: higher = more reporter protein produced; luciferase per cell, z-score: higher = more reporter output per viable cell; viable cells, % of control: higher = more viable cells
- Rule for the call: 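An siRNA counts as active if its total luciferase robust z-score exceeds 3; genes with two or more such siRNAs out of three were retested with fresh siRNAs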
- Meaning of the calls: active = raised luciferase; inactive = no rise
Shown is a random part of about 59,000 deposited reagents. Over the whole deposit, about 1,510 (2.6%) are marked active. 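Calls use total luciferase alone and ignore viability, so some active siRNAs may act by altering cell number.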 Entries without a mark were called inactive. The numbers tell different reagents against one gene apart.

| Gene | siRNA no. | total luciferase, z-score | total luciferase, % of control | luciferase per cell, z-score | viable cells, % of control |
| --- | --- | --- | --- | --- | --- |
| PIK3C2A | 1 | -0.929 | 63.4 | -0.521 | 81.3 |
| PIK3C2A | 2 | -0.431 | 73.3 | -0.349 | 89.8 |
| PIK3C2A | 3 | -0.555 | 70.9 | -1.28 | 111 |
| ANAPC13 (anaphase promoting complex subunit 13) | 1 | 1.43 | 110 | 1.39 | 85.4 |
| ANAPC13 (anaphase promoting complex subunit 13) | 2 | -0.158 | 78.8 | -0.675 | 105 |
| ANAPC13 (anaphase promoting complex subunit 13) | 3 | 2.27 | 127 | 1.73 | 90 |
| PUS3 (pseudouridine synthase 3) | 1 | 0.973 | 101 | 0.306 | 104 |
| PUS3 (pseudouridine synthase 3) | 2 | -0.616 | 69.6 | -0.762 | 95.1 |
| PUS3 (pseudouridine synthase 3) | 3 | -0.323 | 75.5 | -0.901 | 107 |
| SDR16C5 (short chain dehydrogenase/reductase family 16C member 5) | 1 | -1.06 | 60.7 | -1.94 | 113 |
| SDR16C5 (short chain dehydrogenase/reductase family 16C member 5) | 2 | 0.42 | 90.2 | 1.27 | 72.2 |
| SDR16C5 (short chain dehydrogenase/reductase family 16C member 5) | 3 | -0.277 | 76.4 | 0.52 | 74.4 |
| PGM5P4 (phosphoglucomutase 5 pseudogene 4) | 1 | 2.13 | 124 | 2 | 81.9 |
| PGM5P4 (phosphoglucomutase 5 pseudogene 4) | 2 | 0.592 | 93.7 | 0.733 | 86.3 |
| PGM5P4 (phosphoglucomutase 5 pseudogene 4) | 3 | -0.843 | 65.1 | -0.905 | 92.4 |
| ZBTB16 (zinc finger and BTB domain containing 16) | 1 | -1.65 | 49.1 | -0.334 | 59.9 |
| ZBTB16 (zinc finger and BTB domain containing 16) | 2 | -0.138 | 79.1 | -0.418 | 98.7 |
| ZBTB16 (zinc finger and BTB domain containing 16) | 3 | 1.28 | 107 | 1.58 | 79.2 |
| HPSE (heparanase) | 1 | -0.832 | 65.3 | -1.03 | 95.8 |
| HPSE (heparanase) | 2 | 0.56 | 93 | 0.479 | 91.6 |
| HPSE (heparanase) | 3 | -0.547 | 71 | -0.42 | 88.6 |
| LRIG1 (leucine rich repeats and immunoglobulin like domains 1) | 1 | -0.844 | 65.1 | -0.79 | 89.6 |
| LRIG1 (leucine rich repeats and immunoglobulin like domains 1) | 2 | 1.75 | 117 | 1.7 | 83.3 |
| LRIG1 (leucine rich repeats and immunoglobulin like domains 1) | 3 | 1.03 | 102 | 1.09 | 85.8 |
| MRPL2 (mitochondrial ribosomal protein L2) | 1 | -0.418 | 73.6 | -0.828 | 102 |
| MRPL2 (mitochondrial ribosomal protein L2) | 2 | -0.794 | 66.1 | -1.13 | 99.5 |
| MRPL2 (mitochondrial ribosomal protein L2) | 3 | -0.541 | 71.1 | -1.13 | 107 |
| ASB10 (ankyrin repeat and SOCS box containing 10) | 1 | 0.657 | 95 | 0.133 | 102 |
| ASB10 (ankyrin repeat and SOCS box containing 10) | 2 | -1.22 | 57.6 | -1.43 | 93.8 |
| ASB10 (ankyrin repeat and SOCS box containing 10) | 3 | 1.03 | 102 | 1.23 | 82.8 |
| G6PC2 (glucose-6-phosphatase catalytic subunit 2) | 1 | 0.945 | 101 | 0.543 | 97.5 |
| G6PC2 (glucose-6-phosphatase catalytic subunit 2) | 2 | -0.188 | 78.1 | -0.171 | 91.3 |
| G6PC2 (glucose-6-phosphatase catalytic subunit 2) | 3 | 0.158 | 85 | -0.706 | 114 |
| NRF1 (nuclear respiratory factor 1) | 1 | -0.757 | 66.8 | -0.648 | 88.6 |
| NRF1 (nuclear respiratory factor 1) | 2 | -0.146 | 79 | -0.744 | 107 |
| NRF1 (nuclear respiratory factor 1) | 3 | -0.903 | 63.9 | -1.09 | 95.2 |
| PASK (PAS domain containing serine/threonine kinase) | 1 | 1.25 | 107 | 0.769 | 97.4 |
| PASK (PAS domain containing serine/threonine kinase) | 2 | -0.739 | 67.2 | -0.776 | 92.1 |
| PASK (PAS domain containing serine/threonine kinase) | 3 | -0.251 | 76.9 | -0.383 | 95 |
| LRRC66 (leucine rich repeat containing 66) | 1 | -1.06 | 60.8 | -1.24 | 94.2 |
| LRRC66 (leucine rich repeat containing 66) | 2 | 0.206 | 86 | -0.00437 | 96.2 |
| LRRC66 (leucine rich repeat containing 66) | 3 | -1.79 | 46.3 | -1.4 | 74.7 |
| ERICH3 (glutamate rich 3) | 1 | 0.646 | 94.7 | 0.91 | 83.3 |
| ERICH3 (glutamate rich 3) | 2 | 1.73 | 116 | 1.59 | 85.5 |
| ERICH3 (glutamate rich 3) | 3 | -1.6 | 50.1 | -1.55 | 84.3 |
| OR1A1 (olfactory receptor family 1 subfamily A member 1) | 1 | 1.15 | 105 | 0.425 | 105 |
| OR1A1 (olfactory receptor family 1 subfamily A member 1) | 2 | 0.435 | 90.5 | 0.278 | 94 |
| OR1A1 (olfactory receptor family 1 subfamily A member 1) | 3 | 0.112 | 84.1 | -0.00215 | 94 |
| ZFAND1 (zinc finger AN1-type containing 1) | 1 | 1.83 | 118 | 1.85 | 81.3 |
| ZFAND1 (zinc finger AN1-type containing 1) | 2 | -1.62 | 49.7 | -1.36 | 79.6 |
| ZFAND1 (zinc finger AN1-type containing 1) | 3 | -1.69 | 48.2 | -0.315 | 58.5 |
| FOSB (FosB proto-oncogene, AP-1 transcription factor subunit) | 1 | -0.309 | 75.7 | -0.576 | 98.5 |
| FOSB (FosB proto-oncogene, AP-1 transcription factor subunit) | 2 | 0.855 | 98.9 | 0.727 | 91.3 |
| FOSB (FosB proto-oncogene, AP-1 transcription factor subunit) | 3 | 0.323 | 88.3 | 1.53 | 66 |
| CBARP (CACN subunit beta associated regulatory protein) | 1 | 0.79 | 97.6 | 0.511 | 95.3 |
| CBARP (CACN subunit beta associated regulatory protein) | 2 | 0.262 | 87.1 | 0.116 | 94.4 |
| CBARP (CACN subunit beta associated regulatory protein) | 3 | 0.169 | 85.2 | -0.0968 | 97.7 |
